Experimental findings from publication PMC8644457 are described below.

Assay [1] addresses T1, MYB28 fused to the Gal4 DNA-binding domain (Arabidopsis thaliana) (UniProt Q9SPG2).
T1 sequence: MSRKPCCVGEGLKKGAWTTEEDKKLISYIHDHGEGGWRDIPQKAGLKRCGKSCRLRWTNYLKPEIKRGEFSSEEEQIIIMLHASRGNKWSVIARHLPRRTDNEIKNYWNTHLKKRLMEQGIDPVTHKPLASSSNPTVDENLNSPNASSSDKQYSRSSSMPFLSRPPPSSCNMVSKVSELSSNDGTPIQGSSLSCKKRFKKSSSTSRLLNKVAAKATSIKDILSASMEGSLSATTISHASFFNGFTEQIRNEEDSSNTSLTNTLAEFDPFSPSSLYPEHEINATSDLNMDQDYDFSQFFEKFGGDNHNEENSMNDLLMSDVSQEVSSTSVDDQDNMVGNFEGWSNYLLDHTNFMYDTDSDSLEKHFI
Description: yeast three-hybrid; pBridge MYB28BD-SDI (MYB28 fused to Gal4 DNA-BD, SDI1 as untagged bridging protein) co-transformed with MYC2AD prey; dropout plates (DDO, TDO, QDO) with or without X-α-Gal and Aureobasidin.

Assay [2] concerns the target T2, SDI1 fused to the Gal4 DNA-binding domain (Arabidopsis thaliana) (UniProt Q8GXU5).
T2 sequence: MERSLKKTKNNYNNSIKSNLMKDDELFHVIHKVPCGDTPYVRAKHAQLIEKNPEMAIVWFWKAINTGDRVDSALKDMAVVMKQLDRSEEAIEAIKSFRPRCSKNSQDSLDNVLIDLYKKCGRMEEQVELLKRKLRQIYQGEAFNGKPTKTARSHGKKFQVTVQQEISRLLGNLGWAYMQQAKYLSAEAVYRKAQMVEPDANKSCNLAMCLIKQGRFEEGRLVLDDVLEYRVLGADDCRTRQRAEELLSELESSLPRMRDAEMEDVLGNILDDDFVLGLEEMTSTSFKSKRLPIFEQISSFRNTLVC
Nature of the assay: yeast three-hybrid; pBridge SDI1BD-MYB28 (SDI1 fused to Gal4 DNA-BD, MYB28 as untagged bridging protein) co-transformed with MYC2AD prey; dropout plates (DDO, TDO, QDO) with or without X-α-Gal and Aureobasidin.

No constants are given. Whether binding was seen depends on the method and setting. Some results given as binding are weak or reduced against the parent protein; the word gives no strength. Where a sequence is shown, tags or fusion partners need not be part of it.

B1: SDI1 expressed as the bridging protein (no binding or activation domain) (protein, UniProt Q8GXU5 1-306)
chain: T2 sequence
Consider B1, for which the binding result in assay [1] is “binds”.

B2: MYB28 expressed as the bridging protein (no binding or activation domain) (protein, UniProt Q9SPG2 1-366)
chain: T1 sequence
As for B2, the binding result in assay [2] is reported as “binds”.
